Assay results: patent US20240383913A1, “THIOPHENE RING COMPOUND, PREPARATION METHOD THEREFOR AND APPLICATION THEREOF” (CENTER FOR EXCELLENCE IN MOLECULAR CELL SCIENCE, CHINESE …, priority 2021, published 2024)
For at least one compound, name, drawing or mass did not settle the structure.

System: hyperlocomotion of the mice induced by MK801
Experiment: Open field test, hyperlocomotion induced by MK801
Type: in vivo, C57B6 male mice
Conditions: (−)-I-27 0.1 mg/kg i.p. + MK801 0.2 mg/kg; 40 minutes after MK801; 5-minute bin
Method: Experimental method: The experimental animals were C57B6 male mice, n=8 in each group. This model used C57B6 mice as experimental animals. Hyperlocomotion of the mice in open field was induced by acute injection of a NMDA antagonist MK801. and modeled to test the inhibitory effect of different compounds on hyperkinesia phenotype induced by MK801. All mouse behavior experiments were carried out during the light period, and the whole process was recorded by the camera and locomotive data were tracked and analyzed by behavioral tracking software. The compounds were administered intraperitoneally. Immediately after the injection, the mice entered the open field and their movement trajectories were recorded by the camera. After 30 minutes, the mice received 0.2 mg/kg of MK801 by intraperitoneal injection and returned to the open field immediately after administration and the movement trajectories were further recorded for 120 minutes. The accumulative travelled distance of the mice was counted in a 5-minute bin. Data statistics were performed using Student-t-test analysis, *p<0.05, ** p<0.01, *** p<0.001, **** p<0.0001.

How did the “Distance travelled (cm)” value turn out when `CN(C)C(=O)N[C@H]1CC[C@H](CCN2CCN3c4cccc5scc(c45)CC3C2)CC1` (single isomer, unassigned; (-)) [(−)-I-27] was run?
The value was 1024.73 ± 106.15 cm.
